The results in this text go back to article PMC5996148.

Among the test systems are NETO1 (human); NFKBIB (human); NFYA (human); NGFRAP1 (human); NIF3L1 (human); NINJ1 (human); NINJ2 (human); NIPA2 (human); NIPSNAP3B (human); NIT2 (human); NKAIN4 (human); NKD2 (human); NKG2D ligand 4 (human); NLRP2 (human); NMB (human).
Holding throughout (assay): protein microarray (ProtoArray v5.0), streptavidin-Alexa Fluor 647
Holding throughout (conditions): 3'-biotin; 20 mM Tris (pH 7.5), 5 mM MgCl2, 100 mM KCl, 0.1% Tween-20, A/T-rich and random oligonucleotide blockers; temperature not stated; high values mean tight binding

Assay [1] has as its system NEDD8-activating enzyme E1 regulatory subunit (human).
Assay [2] has as its system NF-kappa-B inhibitor epsilon (human).
Assay [3] concerns NF-kappa-B inhibitor zeta (human).
The subject of assay [4] is NFU1 iron-sulfur cluster scaffold homolog, mitochondrial (human).
The subject of assay [5] is NGFI-A-binding protein 2 (human).

The list shows a part of the results.

Take “GGGAGGCTGAGGCAGG [G4-1 biotinylated (PQS2)]”: the binding signal was -0.246 z-score in [1]; -0.341 z-score in the assay with NETO1 (human); -0.297 z-score in assay [2]; -0.339 z-score in [3]; -0.338 z-score in the assay with NFKBIB (human); -0.354 z-score in [4]. The binding signal is -0.285 z-score in the assay with NFYA (human); -0.344 z-score in [5]; -0.268 z-score in the assay on NGFRAP1 (human); -0.305 z-score in the assay on NIF3L1 (human); -0.319 z-score in the assay on NINJ1 (human); -0.34 z-score with NINJ2 (human). The binding signal is -0.284 z-score in the assay on NIPA2 (human); -0.346 z-score in the assay on NIPSNAP3B (human); -0.353 z-score with NIT2 (human); -0.314 z-score with NKAIN4 (human); -0.294 z-score with NKD2 (human); -0.307 z-score with NKG2D ligand 4 (human). Moreover, the binding signal in the assay with NLRP2 (human) is -0.33 z-score; in the assay on NMB (human), -0.282 z-score.
